Source: US20210292814
For at least one entry, the source does not settle the construct or the ends of the probe.

The sequences below were run on lactoferrin (assay: FP). Conditions: 250 nM FITC-aptamer with 25 ug/mL lactoferrin, 37 C 15 min; purified native protein; protein details: spotted on glass microarray for selection; label: FITC; single-stranded DNA.

Binding result, binds:
AGGCAGGACACCGTAACCGGTGCATCTATGGCTACTAGCTTTTCCTGCCT [N2]

Same assay, conditions: linear FP detection of lactoferrin, 37 C 15 min; purified native protein; protein details: spotted on glass microarray for selection; label: FITC; single-stranded DNA

Binding result, binds:
GCAGGACACCGTAACACTGCTTTATCCCCGTCGGCTTGGCTCTTCGACAGTGTGGCTGC [N14]
GGCAGGACACCGTAACCAGTATAGGTGCATTTTTGGCGCAAGCTCTTCCTGCCCTG [N31]
GGCAGGACACCGTAACCCCTAGTTCCTGGTGCATTTATGGCAAAGCTTTTCCTGCC [N16]
GCAGGACACCGTAACTCGGGCAAAGCTCTGAATAATGTTCAACCAATATTCTGTCCTGC [N6]

The sequences below were run on lactoferrin (assay: SELEX). Conditions: microarray chip selection, 7 rounds, PBS, room temperature; purified native protein; protein details: spotted on glass microarray for selection; single-stranded DNA.

Selection result, selected:
GCAGGACACCGTAACCCTAACACGTACGGGGCATTTATGGCATAGCTCTTCCTCCCTGC [SEQ ID NO 5]

Same assay, conditions: microarray chip selection, 7 rounds; purified native protein; protein details: spotted on glass microarray for selection; single-stranded DNA

Selection result, selected:
GCAGGACACCGTAACGGGCGGAGCTCTTCCATTTCAGATTTGTAAATGGATGTCACTGC [SEQ ID NO 24]
AGCAGACGGGAGACTTTTAGAGTTGTAACTTGAGTCTGCT [SEQ ID NO 34]
GCAGGACACCGTAACACTACCTTCTTTCGGTGCGATCCATTCGGCTTTGCTTTTCCTGC [SEQ ID NO 31]
TGACAGGCAGGACACCGTAACGGGCGAATGCTCTCTTTGTTTTATATATAACAAAGTGTCTCTGCTACCTCCCTCCTCTTCA [SEQ ID NO 61]
CAGGCAGGACACCGTAACCGGGCATTTGCTCTCAATTTAGTCTCAAATTGTGGCCTGCCTG [SEQ ID NO 21]
GCAGGACACCGTAACGGGCTATGCTCTAAATTCTTCCTACTGACGCAATTTTGGACTGC [SEQ ID NO 25]
TGACAGGCAGGACACCGTAACGCGGGCGAAGCTCTTAATACCTCTCTATTATGTCCTGTTCCTGCTACCTCCCTCCCCTTCA [SEQ ID NO 60]
TGACAGGCGGGACACCGTAACCCCAACACGTACGGGGCATTTATGGCATAGCTCTTCCTCCCTGCTACCTCCCTCCTCTTCA [SEQ ID NO 65]
GCAGGACACCGTAACACTGCTTTATCCCCGTCGGCTTGTCTCTTCGACAGTGTGGCTGC [SEQ ID NO 33]
GGCAGGACACCGTAACCCCACTCGAGGTGCAATTTTGGCGTGAGCTCTTCCTGCC [SEQ ID NO 37]
GCAGGACACCGTAACAATACTCCTGTTACCGTGCATCTATGGCCATTGGCTTTTCCTGC [SEQ ID NO 11]
TGACAGGCAGGACACCGTAACGGGCAATCTTGCTCTTATTTTCACACCTGATAAATATGTCCTGCTACCTCCCTCCTCTTCA [SEQ ID NO 51]
TGACAGGCAGGACACCGTAACCATACTTCGGTGCATCCCATGGCGAATTCGCTCTTCCTTCCTGCTACCTCCCTCCTCTTCA [SEQ ID NO 49]
GCAGGACACCGTAACGGGCAATCTTGCTCTTATTTTCACACTTGATAAATATGTCCTGC [SEQ ID NO 7]
TGACAGGCAGGACACCGTAACACGGGGCAATTTTGGTGAAGCTCTTCCTGCCCAGCCTACTCTGCTACCTCCCTCCTCTTCA [SEQ ID NO 58]
TGACAGGCAGGACACCGTAACACACGTTAACTTACGGCGCATTTTTTGGCTTCAGCTCTTCCTGCTACCTCCCTCCTCTTCA [SEQ ID NO 46]
TGACAGGCAGGACACCGTAACGGGCTTAGCTCTAAATCAAATCCTCCTTATTGATTTTGTCCTGCTACCTCCCTCCTCTTCA [SEQ ID NO 52]
TGACAGGCAGGACACCGTAACGTAACTACGGACGGCATCTATGGCTATGCTCTTGTCCCTGCTGCTACCTCCCTCCTCTTCA [SEQ ID NO 55]
GCAGGACACCGTAACACGGGCTGATGCTCTCTTTATTTTACCTAAATAAAGTGTCCTGC [SEQ ID NO 17]
GCAGGACACCGTAACGGGCGAACGCTCTAAATAAATGGCATCAATTTCTTTTGCCCTGC [SEQ ID NO 8]
GCAGGACACCGTAACGGGTGCACACTCTTATTTTTACACGAGCCAAAAATATGTCCTGC [SEQ ID NO 26]
TGACAGGCAGGACACCGTAACTACCTCTTCCATATCGGTGCAACATTTGGCTTAGCTCTTCCTGCTACCTCCCTCCTCTTCA [SEQ ID NO 56]
TGACAGGCAGGACACCGTAACCGGGCTATTGCTCTCAAACTTACACTTTAACGTTTGGGTCCTGCTACCTCCCTCCTCTTCA [SEQ ID NO 59]
AGCAGACGGGAGACCTTTAGAGTTGTAACTTGAGTCTGCT [SEQ ID NO 19]
AGGCAGGACACCGTAACCTACAACGGTGCCATCTATGGGCTTTGCTTTTCCTGCCT [SEQ ID NO 40]
TGACAGGCAGGACACCGTAACGGGTTTAACTCTCAAATTAGCTCTGCACTACATTTGTGCCCTGCTACCTCCCTCCTCTTCA [SEQ ID NO 54]
GCAGGACACCGTAACGGGCTTATGCTCTTAAAAATCCTGAGCGACTTTTTATGTACTGC [SEQ ID NO 9]
GGCAGGACACCGTAACCATCGACGGTGCCGGTCTCGGGCATTTTGCTCTTCCTGCC [SEQ ID NO 36]
TGACAGGCAGGACACCGTAACGGGTAACACTCTACTTATACCTTGCTATAAGTTGTCCGCACTGCTACCTCCCTCCTCTTCA [SEQ ID NO 53]
CAGGCAGGACACCGTAACGGTGCAATTATTGGTGAACACTCTTCCTTAGCCTGCTACTCTG [SEQ ID NO 27]
TGACAGGCAGGACACCGTAACTTCTGATAATCGGTGCATCTATGGCGTAGCTCTTCCTCACCTGCTACCTCCCTCCTCTTCA [SEQ ID NO 57]
TGACAGGCAGGACACCGTAACGGGCTTATGCTCTTAAAAATCCTGAGCGACTTTTTATGTACTGCTACCTCCCTCCTCTTCA [SEQ ID NO 63]
TGACAGGCAGGACACCGTAACACGGTGCAAACTCTTGGCGAATGCTTTTCCTGACCCGCTACTGCTACCTCCCTCCTCTTCA [SEQ ID NO 47]
GCAGGACACCGTAACAACAACTTCGTATCCGGTGCATTTATGGCGAATGCTTTTCCTGC [SEQ ID NO 30]
AGGCAGGACACCGTAACTGAACGGTCTTGGCTACTGCACATTTTTCCTGCCT [SEQ ID NO 29]
GCAGGACACCGTAACACTCTCAACCATGACGGTGCAATATTGGCGCTAGCTCTTCCTGC [SEQ ID NO 13]
GCAGGACACCGTAACGTATTAACTAGTACCAGTGCATCTATGGCTATTGCTTTTCCTGC [SEQ ID NO 14]
AGGCAGGACACCGTAACGGTGCGTGTACACGGCTCTGCTTTTCCTGCCT [SEQ ID NO 43]
GCAGGACACCGTAACACTGCTTTATCCCCGTCGGCTTGGCTCTTCGACAGTGTTGCTGC [SEQ ID NO 32]
TGACAGGCAGGACACCGTAACAACAACTCGATACTGGTGCCATTTTGGGCGAACGCTTTTCCTGCTACCTCCCTCCTCTTCA [SEQ ID NO 44]
TGACAGGCAGGACACCGTAACAACCAACCTACGGTGCAATATTTGGCGGATTAAGCTCTTCCTGCTACCTCCCTCCTCTTCA [SEQ ID NO 45]
GGCAGGACACCGTAACCCCTAGTTCCTGGTGCATTTATGGCAAAGCTCTTCCTGCC [SEQ ID NO 39]
TGACAGGCAGGACACCGTAACATACGATTCTCTCGCACATTGTGGCTCCGCTTTTATGTTACTGCTACCTCCCTCCTCTTCA [SEQ ID NO 48]
TGACAGGCAGGACACCGTAACGGTGCGGTCATATCCGGCTTTGCTTTTCCTGCCTTCTCTCCTGCTACCTCCCTCCTCTTCA [SEQ ID NO 64]
AGGCAGGACACCGTAACACCGGTGCGTCCCACGGCTCCAGCTCTTCCTGCCT [SEQ ID NO 16]
GCAGGACACCGTAACTCATCCCAAGCTCCGGTGCCATCTATGGGCTTCGCTTTTCCTGC [SEQ ID NO 28]
GGCAGGACACCGTAACCCCTAGTTCCTGGTGCATCTATGGCAAAGCTCTTCCTGCC [SEQ ID NO 38]
AGGCAGGACACCGTAACGGTGCATCTATGGCTTTGCTCTTCCTACCTGTTCTACGAGCTGCTACCTCCCT [SEQ ID NO 42]
TGACAGGCAGGACACCGTAACCGGGCGGAGCTCTTATTACATCAACTCGCTGTAATATGGCCTGCTACCTCCCTCCTCTTCA [SEQ ID NO 50]
GCAGGACACCGTAACACGGGCTCTGCTTTTCCAATAATGACAAGTATTGGATGGCCTGC [SEQ ID NO 12]
GCAGGACACCGTAACGTTCGTAACAACACGGCATCTATGGCTTTAGCTCTTGTACCTGC [SEQ ID NO 15]
GCAGGACACCGTAACGGGCGAACGCTCTTTATTTTGGAACCCACAAAATAATGTTCTGC [SEQ ID NO 23]
TGACAGGCAGGACACCGTAACGGGCTCTGCTCTAAATTTCGCCCTTGCACGAAATTTTGTCCTGCTACCTCCCCCCTCTTCA [SEQ ID NO 62]

Same assay, conditions: microarray chip selection, 7 rounds; shares conserved SEQ 67; purified native protein; protein details: spotted on glass microarray for selection; single-stranded DNA

Selection result, selected:
AGGCAGGACACCGTAACCGGTGCATCTATGGCTACTAGCTCTTCCTGCCT [SEQ ID NO 22]
GACAGGCAGGACACCGTAACGGTGCATCCATGGCTTTTAGCTCTTCCTGAACTGTC [SEQ ID NO 41]
